The values below are quoted from earlier work in US8952169B2 (Genentech, Inc., priority 2012, dated 2015).

For this data set the following is noted: administered topically (a Lidoderm patch); cited from earlier work.

Turning to `CCN(CC)CC(=O)Nc1c(C)cccc1C` [lidocaine], the plasma concentrations result is recorded as “about 1 μM”.
